PubChem BioAssay AID1259292 – Sanger Institute – 2017
Purpose: 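Kinase silencing that boosts cell killing by targeted cancer drugs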 (follow-up of hits). Cell system: human colorectal cancer RCM1 cells. Reagent: single siRNA against human genes. Challenge: anchor drugs BYL719 at 1 µM, cetuximab at 5 µg/ml or trametinib at 10 nM, or DMSO vehicle; exposure time not given. Measurement: 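Viability of cells relative to control pool 2 (non-targeting) following DMSO or drug (BYL719 1 µM, cetuximab 5 µg/ml, trametinib 10 nM), plus synergy scores by drug; averaged replicates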. Reading the numbers: synergy score with trametinib and synergy score with cetuximab and synergy score with BYL719: higher = stronger combined killing beyond expected (synthetic lethal); viability with siRNA alone (DMSO) and viability with siRNA plus trametinib: higher = more viable cells. Call rule: 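Synergy called if the score for BYL719, cetuximab or trametinib, any one of them, exceeds 0.10; genes below this for all three show no synergy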. Meaning of the calls: active = synergy with at least one anchor drug; inactive = no synergy with any anchor drug.
Here is an unselected part of 160 reagents tested. 64 of them (40%) were called active. 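Four separate siRNAs per gene; a call can rest on any single drug, so look at each drug's score.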 Reagents against one gene are numbered here. No viability above 1 is reported: the scale is capped. The record does not give: the amount of reagent, the time to read-out.

no.	Gene	reagent no.	synergy score with trametinib	synergy score with cetuximab	synergy score with BYL719	viability with siRNA alone (DMSO) (fraction of control)	viability with siRNA plus trametinib (fraction of control)	outcome
1	ACVR1 (activin A receptor type 1)	1	-0.0759	-0.0686	-0.162	1	0.691	inactive
2	ACVR1 (activin A receptor type 1)	2	0.0829	-0.0338	-0.059	0.994	0.528	inactive
3	ACVR1 (activin A receptor type 1)	3	0.1	-0.0686	-0.162	1	0.515	inactive
4	ACVR1 (activin A receptor type 1)	4	0.158	-0.0602	-0.162	1	0.457	active
5	PIM1 (Pim-1 proto-oncogene, serine/threonine kinase)	1	0.169	-0.0724	-0.0836	0.692	0.256	active
6	PIM1 (Pim-1 proto-oncogene, serine/threonine kinase)	2	0.0871	-0.069	-0.18	0.952	0.498	inactive
7	PIM1 (Pim-1 proto-oncogene, serine/threonine kinase)	3	-0.355	-0.0686	-0.162	1	0.97	inactive
8	PIM1 (Pim-1 proto-oncogene, serine/threonine kinase)	4	0.105	-0.0686	-0.089	1	0.51	active
9	CRIM1 (cysteine rich transmembrane BMP regulator 1)	1	-0.181	0.0927	-0.0984	1	0.796	inactive
10	CRIM1 (cysteine rich transmembrane BMP regulator 1)	2	0.0525	-0.0488	-0.0224	0.797	0.437	inactive
11	CRIM1 (cysteine rich transmembrane BMP regulator 1)	3	0.136	-0.142	-0.145	0.798	0.355	active
12	CRIM1 (cysteine rich transmembrane BMP regulator 1)	4	0.192	-0.0458	0.0126	0.669	0.219	active
13	GTF2H1 (general transcription factor IIH subunit 1)	1	0.0514	-0.0522	0.0171	0.921	0.515	inactive
14	GTF2H1 (general transcription factor IIH subunit 1)	2	-0.257	-0.0686	-0.162	1	0.872	inactive
15	GTF2H1 (general transcription factor IIH subunit 1)	3	-0.114	0.0112	-0.182	0.949	0.697	inactive
16	GTF2H1 (general transcription factor IIH subunit 1)	4	0.05	-0.0405	-0.0609	0.754	0.413	inactive
17	CDKN2D (cyclin dependent kinase inhibitor 2D)	1	0.204	0.0412	-0.158	0.885	0.34	active
18	CDKN2D (cyclin dependent kinase inhibitor 2D)	2	0.154	0.0452	0.113	0.919	0.411	active
19	CDKN2D (cyclin dependent kinase inhibitor 2D)	3	0.135	0.0206	0.0153	1	0.48	active
20	CDKN2D (cyclin dependent kinase inhibitor 2D)	4	0.271	0.0294	-0.0229	0.873	0.265	active

9 of these entries in another layout.
| Gene | reagent no. | synergy score with trametinib | synergy score with cetuximab | synergy score with BYL719 | viability with siRNA alone (DMSO) (fraction of control) | viability with siRNA plus trametinib (fraction of control) | outcome |
| --- | --- | --- | --- | --- | --- | --- | --- |
| CRIM1 (cysteine rich transmembrane BMP regulator 1) | 3 | 0.136 | -0.142 | -0.145 | 0.798 | 0.355 | active |
| CRIM1 (cysteine rich transmembrane BMP regulator 1) | 4 | 0.192 | -0.0458 | 0.0126 | 0.669 | 0.219 | active |
| GTF2H1 (general transcription factor IIH subunit 1) | 1 | 0.0514 | -0.0522 | 0.0171 | 0.921 | 0.515 | inactive |
| GTF2H1 (general transcription factor IIH subunit 1) | 2 | -0.257 | -0.0686 | -0.162 | 1 | 0.872 | inactive |
| GTF2H1 (general transcription factor IIH subunit 1) | 3 | -0.114 | 0.0112 | -0.182 | 0.949 | 0.697 | inactive |
| GTF2H1 (general transcription factor IIH subunit 1) | 4 | 0.05 | -0.0405 | -0.0609 | 0.754 | 0.413 | inactive |
| CDKN2D (cyclin dependent kinase inhibitor 2D) | 1 | 0.204 | 0.0412 | -0.158 | 0.885 | 0.34 | active |
| CDKN2D (cyclin dependent kinase inhibitor 2D) | 2 | 0.154 | 0.0452 | 0.113 | 0.919 | 0.411 | active |
| CDKN2D (cyclin dependent kinase inhibitor 2D) | 3 | 0.135 | 0.0206 | 0.0153 | 1 | 0.48 | active |

More results follow:
no.	Gene	reagent no.	synergy score with trametinib	synergy score with cetuximab	synergy score with BYL719	viability with siRNA alone (DMSO) (fraction of control)	viability with siRNA plus trametinib (fraction of control)	outcome
21	CHD4 (chromodomain helicase DNA binding protein 4)	1	-0.0514	0.00847	-0.275	0.547	0.388	inactive
22	CHD4 (chromodomain helicase DNA binding protein 4)	2	0.155	0.0264	-0.0182	0.517	0.163	active
23	CHD4 (chromodomain helicase DNA binding protein 4)	3	0.126	0.0292	-0.0553	0.79	0.36	active
24	CHD4 (chromodomain helicase DNA binding protein 4)	4	-0.0769	-0.048	-0.157	0.963	0.669	inactive
25	IRAK3 (interleukin 1 receptor associated kinase 3)	1	-0.0136	0.013	-0.102	0.446	0.288	inactive
26	IRAK3 (interleukin 1 receptor associated kinase 3)	2	0.172	0.00542	-0.0274	0.851	0.351	active
27	IRAK3 (interleukin 1 receptor associated kinase 3)	3	0.0604	-0.0026	-0.00981	1	0.554	inactive
28	IRAK3 (interleukin 1 receptor associated kinase 3)	4	-0.0148	-0.0796	-0.228	0.873	0.551	inactive
29	COASY (Coenzyme A synthase)	1	-0.181	0.0579	-0.0762	0.646	0.579	inactive
30	COASY (Coenzyme A synthase)	2	-0.123	-0.061	-0.0258	0.88	0.664	inactive
31	COASY (Coenzyme A synthase)	3	0.0881	0.0561	-0.195	0.524	0.234	inactive
32	COASY (Coenzyme A synthase)	4	-0.0866	-0.0207	-0.251	0.397	0.331	inactive
33	CDK6 (cyclin dependent kinase 6)	1	0.0408	0.0392	-0.162	1	0.574	inactive
34	CDK6 (cyclin dependent kinase 6)	2	0.226	0.173	0.0966	0.84	0.29	active
35	CDK6 (cyclin dependent kinase 6)	3	0.0457	-0.0686	-0.162	1	0.569	inactive
36	CDK6 (cyclin dependent kinase 6)	4	0.0908	0.216	-0.0638	1	0.524	active
37	MARK3 (microtubule affinity regulating kinase 3)	1	-0.17	-0.0307	-0.212	0.901	0.725	inactive
38	MARK3 (microtubule affinity regulating kinase 3)	2	0.0369	-0.0686	-0.104	1	0.578	inactive
39	MARK3 (microtubule affinity regulating kinase 3)	3	0.0773	0.103	-0.0323	1	0.538	active
40	MARK3 (microtubule affinity regulating kinase 3)	4	0.263	-0.0318	-0.199	0.804	0.231	active
41	MAP3K8 (mitogen-activated protein kinase kinase kinase 8)	1	-0.0877	-0.0686	-0.162	1	0.703	inactive
42	MAP3K8 (mitogen-activated protein kinase kinase kinase 8)	2	-0.0811	0.115	0.0606	0.848	0.602	active
43	MAP3K8 (mitogen-activated protein kinase kinase kinase 8)	3	0.0934	0.176	0.0993	0.942	0.486	active
44	MAP3K8 (mitogen-activated protein kinase kinase kinase 8)	4	0.214	0.117	0.0276	0.862	0.316	active
45	HUNK (hormonally up-regulated Neu-associated kinase)	1	-0.0488	0.0781	0.0235	0.977	0.649	inactive
46	HUNK (hormonally up-regulated Neu-associated kinase)	2	0.0282	0.0326	-0.055	0.542	0.305	inactive
47	HUNK (hormonally up-regulated Neu-associated kinase)	3	0.0472	-0.0143	-0.148	0.661	0.359	inactive
48	HUNK (hormonally up-regulated Neu-associated kinase)	4	0.123	0.26	-0.0194	0.804	0.371	active
49	CAMK2N1 (calcium/calmodulin dependent protein kinase II inhibitor 1)	1	-0.0748	0.0156	-0.0972	0.908	0.633	inactive
50	CAMK2N1 (calcium/calmodulin dependent protein kinase II inhibitor 1)	2	0.0171	0.0528	-0.125	0.804	0.477	inactive
51	CAMK2N1 (calcium/calmodulin dependent protein kinase II inhibitor 1)	3	0.204	0.152	0.0933	0.858	0.324	active
52	CAMK2N1 (calcium/calmodulin dependent protein kinase II inhibitor 1)	4	-0.235	0.000697	-0.181	0.596	0.601	inactive
